Reference: publication PMC9613975

Molecular target: PacII_M1M2S methyltransferase heterotrimer (Pseudomonas alcaligenes NEB585)
Test: SEC; purified M1M2S mixed with Ocr or ArdA at 1:5 molar ratio; Superdex G200 16/60 in 20 mM Tris pH 7.5, 150 mM NaCl, 1 mM DTT; both purified

B1: Ocr (anti-restriction protein) (protein, UniProt P03775 1-117)
chain: MAMSNMTYNNVFDHAYEMLKENIRYDDIRDTDDLHDAIHMAADNAVPHYYADIFSVMASEGIDLEFEDSGLMPDTKDVIRILQARIYEQLTIDLWEDAEDLLNEYLEEVEEYEEDEE
For B1, the binding was “binds”.

Results are given in words; binding and its absence hold for the method and conditions named. Binding can be weak; no strength is given.
